Source: patent US20160243074A1
These are yes or no findings as the source states them, for the method shown. Some entries that bind do so weakly or less than the wild type.

By UniProt entry, the sequences of proteins in these tests, tags left out. Residues count along the entry.
UniProt P02769, residues 25-607: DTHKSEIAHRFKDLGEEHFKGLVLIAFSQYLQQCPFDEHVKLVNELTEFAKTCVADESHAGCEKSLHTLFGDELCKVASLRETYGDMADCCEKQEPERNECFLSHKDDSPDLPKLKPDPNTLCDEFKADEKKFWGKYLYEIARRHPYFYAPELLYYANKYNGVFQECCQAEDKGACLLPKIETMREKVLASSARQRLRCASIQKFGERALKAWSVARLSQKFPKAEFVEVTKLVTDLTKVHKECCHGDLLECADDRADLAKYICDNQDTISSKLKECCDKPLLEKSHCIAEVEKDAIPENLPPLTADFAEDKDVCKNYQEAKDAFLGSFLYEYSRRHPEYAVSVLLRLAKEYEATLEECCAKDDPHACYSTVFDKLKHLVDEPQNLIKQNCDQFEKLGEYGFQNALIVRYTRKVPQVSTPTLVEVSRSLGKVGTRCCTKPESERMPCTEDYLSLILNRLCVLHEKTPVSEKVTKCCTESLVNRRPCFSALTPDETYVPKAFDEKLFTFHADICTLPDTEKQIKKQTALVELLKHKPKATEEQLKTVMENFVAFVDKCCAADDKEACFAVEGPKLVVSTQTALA

Molecular target: T1, Purified SPARC (immobilized onto PVDF membrane) (UniProt P09486)
T1 sequence (looked up): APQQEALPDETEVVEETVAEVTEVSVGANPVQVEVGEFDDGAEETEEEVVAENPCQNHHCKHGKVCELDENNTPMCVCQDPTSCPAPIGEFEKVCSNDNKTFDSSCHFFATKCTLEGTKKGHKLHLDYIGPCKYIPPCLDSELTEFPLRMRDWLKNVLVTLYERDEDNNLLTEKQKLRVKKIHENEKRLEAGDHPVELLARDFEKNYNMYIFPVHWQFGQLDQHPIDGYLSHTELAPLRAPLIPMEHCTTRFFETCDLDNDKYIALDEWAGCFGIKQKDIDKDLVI
Test: filter binding assay, SPARC on PVDF membrane, fluorometer read-out

In the case of “BSA-Alexa fluor 488 (Molecular Probes) (from UniProt P02769 25-607)”, the binding is reported as “binds”.
